Measured values: paper PMC11239938, “Inhibition of DUSP18 impairs cholesterol biosynthesis and promotes anti-tumor immunity in colorectal cancer” (Nature Communications, 2024)
No constants are given. Whether binding was seen depends on the method and setting. Binding seen in cells or lysates may run through a third protein. Some entries that bind do so weakly or less than the wild type.

Sequences of proteins named here, by UniProt entry; tags and fusion partners are left off. A change or cut given only in a name is not applied to a line headed by its entry.
UniProt P22415: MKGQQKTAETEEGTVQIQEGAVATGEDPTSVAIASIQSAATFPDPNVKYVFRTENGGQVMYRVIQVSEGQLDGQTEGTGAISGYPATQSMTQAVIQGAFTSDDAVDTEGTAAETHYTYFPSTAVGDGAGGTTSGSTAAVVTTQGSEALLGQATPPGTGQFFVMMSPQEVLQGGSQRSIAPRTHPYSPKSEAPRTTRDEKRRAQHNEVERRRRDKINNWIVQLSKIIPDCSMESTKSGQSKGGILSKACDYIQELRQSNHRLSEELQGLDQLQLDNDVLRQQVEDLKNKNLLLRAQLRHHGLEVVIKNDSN

Key:
[1] = target: USF1 bHLH-ZIP transcription factor, endogenous (UniProt P22415); assay: co-IP; endogenous proteins; cells lysed in RIPA buffer, lysate with antibody and beads overnight at 4 °C, immunoblot
[2] = target: USF1 bHLH-ZIP transcription factor, exogenous, wild type (UniProt P22415); assay: co-IP; exogenous (tagged, overexpressed) proteins; cells lysed in RIPA buffer, lysate with antibody and beads overnight at 4 °C, immunoblot
[3] = target: USF1 bHLH-ZIP transcription factor, exogenous, wild type (UniProt P22415); assay: co-IP; USF1 wild type or T100A with USF2 or Cha (Supplementary Fig. 5j, k); set-up not given, method taken from the only binding method of the methods section
[4] = target: USF1 T100A mutant (UniProt P22415); assay: as above

B1: dual specificity phosphatase 18 (DUSP18), endogenous (enzyme, UniProt Q8NEJ0 1-188)
chain: MTAPSCAFPVQFRQPSVSGLSQITKSLYISNGVAANNKLMLSSNQITMVINVSVEVVNTLYEDIQYMQVPVADSPNSRLCDFFDPIADHIHSVEMKQGRTLLHCAAGVSRSAALCLAYLMKYHAMSLLDAHTWTKSCRPIIRPNSGFWEQLIHYEFQLFGKNTVHMVSSPVGMIPDIYEKEVRLMIPL
B1 was tested, and the binding [1] was “binds”.

B2: dual specificity phosphatase 18 (DUSP18), exogenous (enzyme, UniProt Q8NEJ0 1-188)
chain: B1 chain
For B2, the binding [2] was “binds”.

B3: transcriptional repressor Cha (protein, UniProt Q9UL49 1-500)
chain: MSGPGPREPPPEAGAAGGEAAVEGAGGGDAALGEPGLSFTTTDLSLVEMTEVEYTQLQHILCSHMEAAADGELETRLNSALLAAAGPGAGAGGFAAGGQGGAAPVYPVLCPSALAADAPCLGHIDFQELRMMLLSEAGAAEKTSGGGDGARARADGAAKEGAGAAAAAAGPDGAPEARAKPAVRVRLEDRFNSIPAEPPPAPRGPEPPEPGGALNNLVTLIRHPSELMNVPLQQQNKCTALVKNKTAATTTALQFTYPLFTTNACSTSGNSNLSQTQSSSNSCSVLEAAKHQDIGLPRAFSFCYQQEIESTKQTLGSRNKVLPEQVWIKVGEAALCKQALKRNRSRMRQLDTNVERRALGEIQNVGEGATATQGAWQSSESSQANLGEQAQSGPQGGRSQRRERHNRMERDRRRRIRICCDELNLLVPFCNAETDKATTLQWTTAFLKYIQERHGDSLKKEFESVFCGKTGRRLKLTRPDSLVTCPAQGSLQSSPSMEIK
With B3 the binding [3] was “binds” and the binding [4] was “binds”.
